The source of these data is patent publication US20230203127A1.

These are yes or no findings as the source states them, for the method shown. Binding calls can cover weak binding; strength is not graded here.

The assay deals with HLA-A*02:01 (human). The experiment in a line: UV peptide-exchange ELISA, exchange yield grade. Background: An ELISA detects its analyte on a solid surface through an enzyme-linked reagent.

For the molecule SLTGANITV [… (SEQ ID NO: 218)], the binding result is “binds”.
